Source: the supplement of paper PMC12823440, “Inhibitors supercharge kinase turnover through native proteolytic circuits” (Nature, 2025)
This is one part of the list. The calls rarely recur for the same compound in another form.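 Kinases, fused to nanoluciferase, were expressed in K562 cells; luminescence was measured every 4 h from 2 to 18 h as percent of control (DMSO = 100%, positive control = 0%). A time point is decreased if signal falls significantly (2 sigma). Hits were called by the authors by a rule that is not shown; the count of time points alone does not decide it.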

Sequences of proteins named here, by UniProt entry; tags and fusion partners are left off. A change or cut given only in a name is not applied to a line headed by its entry.
UniProt P29317, whole entry: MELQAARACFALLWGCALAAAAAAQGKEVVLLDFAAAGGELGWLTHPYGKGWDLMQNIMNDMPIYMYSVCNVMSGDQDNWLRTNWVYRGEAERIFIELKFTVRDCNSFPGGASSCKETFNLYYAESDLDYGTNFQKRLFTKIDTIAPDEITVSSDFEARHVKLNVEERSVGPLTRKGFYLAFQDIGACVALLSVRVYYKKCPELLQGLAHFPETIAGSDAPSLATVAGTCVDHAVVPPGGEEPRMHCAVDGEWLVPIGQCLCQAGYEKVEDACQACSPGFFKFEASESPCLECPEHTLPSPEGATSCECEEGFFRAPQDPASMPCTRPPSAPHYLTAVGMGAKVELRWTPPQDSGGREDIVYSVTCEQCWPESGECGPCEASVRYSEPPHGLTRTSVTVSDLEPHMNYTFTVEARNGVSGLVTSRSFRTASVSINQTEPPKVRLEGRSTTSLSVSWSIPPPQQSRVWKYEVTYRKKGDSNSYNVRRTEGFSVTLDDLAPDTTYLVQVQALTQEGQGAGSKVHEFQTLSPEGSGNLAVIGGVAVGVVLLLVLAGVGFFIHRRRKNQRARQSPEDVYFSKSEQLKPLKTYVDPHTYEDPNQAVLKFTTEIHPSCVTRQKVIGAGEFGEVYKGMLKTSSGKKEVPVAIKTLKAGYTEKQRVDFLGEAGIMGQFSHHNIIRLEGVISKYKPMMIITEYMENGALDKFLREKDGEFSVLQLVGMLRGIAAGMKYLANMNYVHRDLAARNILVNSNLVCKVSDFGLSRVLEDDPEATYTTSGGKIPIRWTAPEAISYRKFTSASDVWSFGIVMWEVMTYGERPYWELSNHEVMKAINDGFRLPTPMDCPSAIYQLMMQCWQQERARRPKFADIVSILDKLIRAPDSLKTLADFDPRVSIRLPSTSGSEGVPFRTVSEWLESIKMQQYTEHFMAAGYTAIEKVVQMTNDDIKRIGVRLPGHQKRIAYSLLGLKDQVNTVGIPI
UniProt Q15303, whole entry R711C: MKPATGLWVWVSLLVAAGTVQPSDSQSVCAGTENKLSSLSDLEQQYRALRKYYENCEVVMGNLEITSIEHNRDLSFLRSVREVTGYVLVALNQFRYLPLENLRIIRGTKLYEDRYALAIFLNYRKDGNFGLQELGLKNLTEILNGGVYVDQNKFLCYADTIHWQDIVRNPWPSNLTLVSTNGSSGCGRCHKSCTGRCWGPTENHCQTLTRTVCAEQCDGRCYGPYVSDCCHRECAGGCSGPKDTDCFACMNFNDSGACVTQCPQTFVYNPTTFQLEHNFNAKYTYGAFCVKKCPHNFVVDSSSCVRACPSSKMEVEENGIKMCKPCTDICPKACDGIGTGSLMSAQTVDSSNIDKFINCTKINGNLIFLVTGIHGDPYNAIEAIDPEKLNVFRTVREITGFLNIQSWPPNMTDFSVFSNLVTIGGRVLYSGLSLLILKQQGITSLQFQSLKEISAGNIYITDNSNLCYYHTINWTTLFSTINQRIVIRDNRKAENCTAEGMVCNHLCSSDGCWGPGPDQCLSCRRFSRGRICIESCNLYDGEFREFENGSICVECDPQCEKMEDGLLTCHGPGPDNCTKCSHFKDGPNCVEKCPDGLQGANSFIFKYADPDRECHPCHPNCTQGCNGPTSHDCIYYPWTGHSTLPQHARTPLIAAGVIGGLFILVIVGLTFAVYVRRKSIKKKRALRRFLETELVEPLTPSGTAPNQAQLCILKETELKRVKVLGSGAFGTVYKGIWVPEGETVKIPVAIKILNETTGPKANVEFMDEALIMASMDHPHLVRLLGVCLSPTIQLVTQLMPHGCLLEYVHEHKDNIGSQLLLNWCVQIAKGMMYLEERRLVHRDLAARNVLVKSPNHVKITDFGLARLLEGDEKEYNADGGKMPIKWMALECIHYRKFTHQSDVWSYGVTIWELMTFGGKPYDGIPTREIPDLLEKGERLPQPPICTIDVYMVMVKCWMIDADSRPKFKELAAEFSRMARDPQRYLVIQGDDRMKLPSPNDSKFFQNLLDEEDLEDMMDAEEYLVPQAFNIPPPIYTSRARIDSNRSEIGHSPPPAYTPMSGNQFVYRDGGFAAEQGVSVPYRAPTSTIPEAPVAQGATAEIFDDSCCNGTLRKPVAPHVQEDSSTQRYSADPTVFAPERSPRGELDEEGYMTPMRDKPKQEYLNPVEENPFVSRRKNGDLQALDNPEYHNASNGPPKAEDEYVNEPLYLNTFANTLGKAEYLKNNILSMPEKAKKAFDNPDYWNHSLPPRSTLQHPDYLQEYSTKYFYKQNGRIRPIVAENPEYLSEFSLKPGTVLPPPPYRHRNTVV
UniProt O75460: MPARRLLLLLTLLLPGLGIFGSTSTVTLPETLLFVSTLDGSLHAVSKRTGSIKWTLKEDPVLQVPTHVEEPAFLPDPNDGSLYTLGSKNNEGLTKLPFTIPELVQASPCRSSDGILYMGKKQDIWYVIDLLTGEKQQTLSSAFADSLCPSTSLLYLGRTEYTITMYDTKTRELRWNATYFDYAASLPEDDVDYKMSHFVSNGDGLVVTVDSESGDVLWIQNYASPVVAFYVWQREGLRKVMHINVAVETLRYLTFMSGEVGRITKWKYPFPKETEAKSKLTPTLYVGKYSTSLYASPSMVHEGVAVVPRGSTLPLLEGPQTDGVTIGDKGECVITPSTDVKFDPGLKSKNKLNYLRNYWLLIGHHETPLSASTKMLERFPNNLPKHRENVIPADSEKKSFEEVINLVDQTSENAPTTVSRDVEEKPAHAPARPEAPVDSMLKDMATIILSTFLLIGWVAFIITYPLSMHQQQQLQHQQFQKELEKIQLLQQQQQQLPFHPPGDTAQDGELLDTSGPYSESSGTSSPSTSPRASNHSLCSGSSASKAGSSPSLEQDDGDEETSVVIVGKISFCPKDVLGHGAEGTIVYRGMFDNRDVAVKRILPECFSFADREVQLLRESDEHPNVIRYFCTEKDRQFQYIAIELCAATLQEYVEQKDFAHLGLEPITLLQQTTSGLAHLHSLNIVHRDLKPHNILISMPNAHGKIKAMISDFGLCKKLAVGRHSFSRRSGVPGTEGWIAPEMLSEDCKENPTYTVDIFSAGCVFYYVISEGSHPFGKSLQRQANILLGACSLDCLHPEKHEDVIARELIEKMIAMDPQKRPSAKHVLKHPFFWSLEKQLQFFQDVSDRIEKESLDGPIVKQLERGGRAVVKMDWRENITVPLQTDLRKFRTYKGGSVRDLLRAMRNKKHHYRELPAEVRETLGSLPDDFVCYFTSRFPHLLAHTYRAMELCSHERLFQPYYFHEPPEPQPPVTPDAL
UniProt P11362, whole entry, looked up: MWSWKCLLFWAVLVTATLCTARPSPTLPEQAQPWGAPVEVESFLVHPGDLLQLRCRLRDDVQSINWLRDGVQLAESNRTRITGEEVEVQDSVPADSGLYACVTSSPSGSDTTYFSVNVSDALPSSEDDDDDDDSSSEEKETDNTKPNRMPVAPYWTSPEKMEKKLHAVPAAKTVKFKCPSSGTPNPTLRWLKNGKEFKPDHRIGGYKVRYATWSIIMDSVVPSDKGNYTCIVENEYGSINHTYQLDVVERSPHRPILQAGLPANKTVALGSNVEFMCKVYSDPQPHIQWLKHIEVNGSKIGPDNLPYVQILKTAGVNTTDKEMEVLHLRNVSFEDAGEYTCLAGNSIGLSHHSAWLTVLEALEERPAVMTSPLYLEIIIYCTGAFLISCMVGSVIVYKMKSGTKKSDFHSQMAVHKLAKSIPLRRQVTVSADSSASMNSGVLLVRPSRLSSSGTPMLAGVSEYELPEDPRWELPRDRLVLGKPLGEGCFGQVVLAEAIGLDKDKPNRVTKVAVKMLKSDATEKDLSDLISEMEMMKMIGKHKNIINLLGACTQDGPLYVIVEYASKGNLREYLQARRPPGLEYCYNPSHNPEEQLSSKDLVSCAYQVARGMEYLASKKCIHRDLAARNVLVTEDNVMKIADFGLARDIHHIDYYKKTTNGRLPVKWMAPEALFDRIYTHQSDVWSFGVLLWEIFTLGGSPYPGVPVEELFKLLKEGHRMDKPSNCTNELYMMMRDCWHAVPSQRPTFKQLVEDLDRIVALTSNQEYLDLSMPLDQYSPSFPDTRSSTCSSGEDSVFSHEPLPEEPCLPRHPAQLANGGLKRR
UniProt P21802, whole entry, looked up: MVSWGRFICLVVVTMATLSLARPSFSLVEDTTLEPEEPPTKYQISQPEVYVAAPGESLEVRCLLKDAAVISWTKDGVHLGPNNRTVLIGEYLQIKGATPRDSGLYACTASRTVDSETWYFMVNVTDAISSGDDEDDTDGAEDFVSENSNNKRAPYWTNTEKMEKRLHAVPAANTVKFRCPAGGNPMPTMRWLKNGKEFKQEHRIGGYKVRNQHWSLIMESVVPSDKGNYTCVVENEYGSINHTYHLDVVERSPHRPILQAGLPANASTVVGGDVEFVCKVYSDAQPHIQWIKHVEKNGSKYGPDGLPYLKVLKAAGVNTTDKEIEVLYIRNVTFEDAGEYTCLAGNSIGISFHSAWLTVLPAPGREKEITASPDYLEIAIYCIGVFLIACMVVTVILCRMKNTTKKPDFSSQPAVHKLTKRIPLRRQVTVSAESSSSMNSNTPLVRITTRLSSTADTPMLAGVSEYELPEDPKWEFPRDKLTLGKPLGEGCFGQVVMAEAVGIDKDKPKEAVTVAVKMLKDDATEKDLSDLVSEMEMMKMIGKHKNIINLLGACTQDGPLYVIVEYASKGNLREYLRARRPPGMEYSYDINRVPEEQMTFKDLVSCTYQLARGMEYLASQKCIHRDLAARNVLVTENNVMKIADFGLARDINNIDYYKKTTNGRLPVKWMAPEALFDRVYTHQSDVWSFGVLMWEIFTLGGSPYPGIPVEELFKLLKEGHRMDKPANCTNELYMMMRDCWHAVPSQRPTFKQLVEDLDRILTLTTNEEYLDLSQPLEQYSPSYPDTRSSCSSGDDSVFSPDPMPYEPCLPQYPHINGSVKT
UniProt P22607, whole entry, looked up: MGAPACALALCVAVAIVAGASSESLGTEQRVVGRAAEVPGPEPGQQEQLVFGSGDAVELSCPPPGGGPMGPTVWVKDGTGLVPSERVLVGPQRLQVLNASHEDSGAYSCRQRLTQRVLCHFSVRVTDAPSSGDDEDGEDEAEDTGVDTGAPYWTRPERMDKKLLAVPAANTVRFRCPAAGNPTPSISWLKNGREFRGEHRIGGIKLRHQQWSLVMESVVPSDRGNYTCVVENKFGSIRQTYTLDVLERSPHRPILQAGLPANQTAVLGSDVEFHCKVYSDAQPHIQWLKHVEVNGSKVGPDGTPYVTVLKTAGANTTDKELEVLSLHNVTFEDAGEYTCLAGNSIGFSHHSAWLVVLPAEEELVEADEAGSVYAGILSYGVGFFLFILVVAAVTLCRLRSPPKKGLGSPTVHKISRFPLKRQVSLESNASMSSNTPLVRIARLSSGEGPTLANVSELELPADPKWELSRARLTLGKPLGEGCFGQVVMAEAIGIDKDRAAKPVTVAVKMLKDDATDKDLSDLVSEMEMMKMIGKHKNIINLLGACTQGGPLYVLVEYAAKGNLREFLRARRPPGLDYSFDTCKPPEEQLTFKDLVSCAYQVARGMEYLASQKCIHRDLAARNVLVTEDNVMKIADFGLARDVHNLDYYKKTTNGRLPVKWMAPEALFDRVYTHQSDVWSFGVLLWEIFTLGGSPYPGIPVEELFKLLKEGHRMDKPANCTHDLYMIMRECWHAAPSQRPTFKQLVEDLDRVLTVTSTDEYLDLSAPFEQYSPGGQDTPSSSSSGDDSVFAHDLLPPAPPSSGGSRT

How the values were obtained:
Assay in all cases: number of time points (of 5) at which kinase-Nluc abundance scored as decreased, DMSO-normalised (count); higher = more persistent destabilization
Conditions in all cases: K562; 2-18 h
[1] = target: EGFR_L861Q (UniProt P00533)
[2] = target: EGFR_T790M (UniProt P00533)
[3] = target: EPHA2 (UniProt P29317)
[4] = target: ERBB3 (UniProt P21860)
[5] = target: ERBB4_R711C (clone: ERBB4_mut) (UniProt Q15303)
[6] = target: ERN1 (UniProt O75460)
[7] = target: FGFR1 (UniProt P11362)
[8] = target: FGFR2 (UniProt P21802)
[9] = target: FGFR3 (UniProt P22607)
[10] = target: FGR (UniProt P09769)

| SMILES | number of time points [1] | number of time points [2] | number of time points [3] | number of time points [4] | number of time points [5] | number of time points [6] | number of time points [7] | number of time points [8] | number of time points [9] | number of time points [10] |
| --- | --- | --- | --- | --- | --- | --- | --- | --- | --- | --- |
| COc1cccc(Nc2ncnn3ccc(CN4CC[C@@H](N)[C@H](O)C4)c23)c1 (2.5 µM) | 1 | 0 | 0 | 3 | 3 | 0 | 0 | 2 | 0 | 0 |
| CC(=O)Nc1nc(C)c(-c2cc3c(c(S(C)(=O)=O)c2)C(=O)N([C@@H](C)C2CC2)C3)s1 (2.5 µM) | 0 | 0 | 0 | 0 | 0 | 0 | 0 | 0 | 0 | 0 |
| NC(=O)c1nc(-c2c(F)cccc2Cl)oc1Nc1ccc(C(=O)N2CCOCC2)cc1 (10 µM) | 0 | 0 | 0 | 0 | 2 | 0 | 0 | 0 | 0 | 0 |
| O=C1NC(=O)C(c2ccccc2[N+](=O)[O-])=C1Nc1ccc(O)c(Cl)c1 (10 µM) | 0 | 0 | 0 | 0 | 0 | 0 | 0 | 0 | 0 | 0 |
| CNCCOc1ccccc1C(C)(C)Nc1nccn(-c2cc(C(=O)NC3CC3)ccc2C)c1=O [p38α inhibitor 2] (10 µM) | 0 | 0 | 0 | 0 | 0 | 0 | 0 | 0 | 0 | 0 |
| Cc1cc(/C=C2\CC/C(=C\c3cc(C)c(O)c(C)c3)C2=O)cc(C)c1O [Pentagamavunon-1] (2.5 µM) | 1 | 0 | 0 | 0 | 0 | 0 | 0 | 0 | 0 | 0 |
| O=C(O)/C=C/c1cc(Br)c(Br)c(Br)c1Br (10 µM) | 0 | 0 | 0 | 0 | 0 | 0 | 0 | 0 | 0 | 0 |
| O=C1C(=Cc2ccc(O)c(O)c2)Oc2ccccc21 (2.5 µM) | 0 | 0 | 0 | 0 | 0 | 0 | 0 | 0 | 0 | 0 |
| O=C(Nc1nccs1)C(c1cc(F)ccc1O)N1Cc2ccc(-c3ccc(N4CCNCC4)cc3)cc2C1=O (racemic) (10 µM) | 0 | 0 | 0 | 0 | 0 | 0 | 3 | 1 | 0 | 0 |
| Cc1ncc(F)c(Nc2n[nH]c3c2CN(C(=O)N2C[C@@H](C)N(CC4CCOCC4)C[C@@H]2C)C3(C)C)n1 (10 µM) | 0 | 0 | 0 | 0 | 0 | 0 | 0 | 0 | 0 | 0 |
| O=C(Nc1ncc(SCCN2CCCC2)s1)[C@]1(c2ccc(S(=O)(=O)C3CC3)cc2)C[C@H]1C1CCCCC1 [Globalagliatin] (2.5 µM) | 0 | 0 | 0 | 0 | 0 | 0 | 0 | 0 | 0 | 0 |
| CN(C)CCCNc1ccn2ncc(-c3ccc4c(c3)OCO4)c2n1 (10 µM) | 0 | 0 | 0 | 0 | 0 | 0 | 0 | 0 | 0 | 0 |
| COc1ccc(COc2cc3oc(=O)c4cc(C(C)O)ccc4c3cc2OC)cc1 (stereo not given) [Palomid 529] (2.5 µM) | 0 | 0 | 0 | 0 | 0 | 0 | 0 | 0 | 0 | 0 |
| O=C1NCCSc2c1sc1ccc(O)cc21 (2.5 µM) | 0 | 0 | 0 | 0 | 0 | 0 | 0 | 1 | 0 | 0 |
| CC(C)(C)S(=O)(=O)c1ccc2nccc(Nc3n[nH]c4ccc(F)cc34)c2c1 (10 µM) | 0 | 0 | 0 | 0 | 0 | 0 | 0 | 0 | 0 | 0 |
| C=C[C@H]1[C@H](O[C@@H]2O[C@H](CO)[C@@H](O)[C@H](O)[C@H]2O)OC=C(C(=O)OC)[C@H]1CCOC(=O)c1cc(O)c(O)c(O)c1 [Cornuside] (10 µM) | 0 | 0 | 0 | 0 | 0 | 0 | 0 | 0 | 0 | 0 |

For convenience, part of the list above:

| SMILES | number of time points [1] | number of time points [2] | number of time points [3] | number of time points [4] | number of time points [5] | number of time points [6] | number of time points [7] | number of time points [8] | number of time points [9] | number of time points [10] |
| --- | --- | --- | --- | --- | --- | --- | --- | --- | --- | --- |
| O=C(Nc1ncc(SCCN2CCCC2)s1)[C@]1(c2ccc(S(=O)(=O)C3CC3)cc2)C[C@H]1C1CCCCC1 [Globalagliatin] (2.5 µM) | 0 | 0 | 0 | 0 | 0 | 0 | 0 | 0 | 0 | 0 |
| CN(C)CCCNc1ccn2ncc(-c3ccc4c(c3)OCO4)c2n1 (10 µM) | 0 | 0 | 0 | 0 | 0 | 0 | 0 | 0 | 0 | 0 |

Continued:

| SMILES | number of time points [1] | number of time points [2] | number of time points [3] | number of time points [4] | number of time points [5] | number of time points [6] | number of time points [7] | number of time points [8] | number of time points [9] | number of time points [10] |
| --- | --- | --- | --- | --- | --- | --- | --- | --- | --- | --- |
| O=C(N/N=C/c1ccc([N+](=O)[O-])o1)c1ccc(O)cc1 [Nifuroxazide] (10 µM) | 2 | 0 | 0 | 2 | 3 | 0 | 3 | 2 | 3 | 0 |
| Cc1cc(F)c(Nc2ncnc3cc(OCc4ccccc4)ccc23)cc1O (10 µM) | 0 | 0 | 0 | 0 | 0 | 0 | 0 | 0 | 0 | 0 |
| O=C(Nc1cc(Cl)cc(Cl)c1)Nc1cc(Cl)cc(Cl)c1 (10 µM) | 0 | 0 | 0 | 0 | 0 | 0 | 0 | 0 | 0 | 0 |
| CN(C/C=C/C(=O)Nc1ccc(C(=O)Nc2cccc(Nc3ncc(Cl)c(-c4c[nH]c5ccccc45)n3)c2)cc1)CCCNC(=O)NCCOCCOCCOCCNC(=O)CCCC[C@@H]1SC[C@@H]2NC(=O)N[C@@H]21 (2.5 µM) | 2 | 1 | 1 | 1 | 2 | 1 | 0 | 2 | 0 | 0 |
| O=C(c1ccc(NS(=O)(=O)c2cccc3cccnc23)cc1)N1CCN(CC2CC2)CC1 [Mitapivat] (10 µM) | 0 | 0 | 0 | 0 | 0 | 0 | 0 | 0 | 0 | 0 |
| CC(C)n1nc(C#Cc2ccccc2)c2c(N)ncnc21 (10 µM) | 2 | 0 | 0 | 3 | 0 | 0 | 0 | 3 | 0 | 0 |
| CCOC(=O)C1=C[C@]2(CC)CCCN3CCc4c(n1c1ccccc41)[C@@H]32 [Vinpocetine] (10 µM) | 0 | 0 | 0 | 0 | 0 | 0 | 0 | 0 | 0 | 0 |
| COc1ccc(F)cc1C(=O)NCc1ccc(-c2nn([C@@H](C)C(F)(F)F)c(N)c2C(N)=O)cc1 [Pirtobrutinib] (10 µM) | 0 | 0 | 0 | 0 | 1 | 0 | 0 | 0 | 0 | 0 |
| CC(C)(C)S(=O)(=O)c1cc2c(Nc3ccc4scnc4c3)ccnc2cc1OCCOCCOCCOCCOCC(=O)Nc1cccc2c1CN(C1CCC(=O)NC1=O)C2=O (stereo not given) [PROTAC RIPK degrader-6] (10 µM) | 0 | 0 | 0 | 0 | 0 | 0 | 0 | 0 | 0 | 0 |
| NC(=O)c1ccc2nc(-c3ccc(C4(N)CCC4)cc3)c(-c3ccccc3)n2n1 (10 µM) | 0 | 0 | 0 | 0 | 0 | 0 | 0 | 0 | 0 | 0 |
| O=C(Nc1nccs1)C(c1cc(F)ccc1O)N1Cc2ccccc2C1=O (stereo not given) (10 µM) | 0 | 0 | 0 | 0 | 0 | 0 | 0 | 0 | 0 | 0 |
| Cn1cc(-c2ccc3nnc(Sc4ccc5nn(C)cc5c4)n3n2)cn1 [c-Met inhibitor 1] (10 µM) | 0 | 0 | 0 | 0 | 0 | 0 | 0 | 0 | 0 | 0 |
| C[C@H](CC[C@@H](O)C(C)(C)O)[C@H]1CC[C@@]2(C)[C@@H]3CC=C4[C@@H](CC[C@H](O)C4(C)C)[C@]3(C)[C@H](O)C[C@]12C [Mogrol] (10 µM) | 0 | 0 | 0 | 0 | 0 | 0 | 0 | 0 | 0 | 0 |
| COc1ncc2cc(C(=O)Nc3cc(C(=O)NCc4cccc(Cl)c4)ccc3Cl)c(=O)[nH]c2n1 (2.5 µM) | 0 | 0 | 0 | 0 | 0 | 0 | 0 | 0 | 0 | 0 |
| CC(=O)Nc1nc(C)c(-c2ccc(Cl)c(S(=O)(=O)NCCO)c2)s1 (10 µM) | 0 | 0 | 0 | 0 | 3 | 0 | 0 | 0 | 0 | 0 |
| COc1cc(OC)c(/C=C/S(=O)(=O)Cc2ccc(OC)c(NCC(=O)O)c2)c(OC)c1 [Rigosertib (sodium)] (10 µM) | 2 | 0 | 0 | 2 | 2 | 0 | 1 | 3 | 0 | 0 |
